Measurements taken from PMC9824695, “A Novel Multi-Target Mu/Delta Opioid Receptor Agonist, HAGD, Produced Potent Peripheral Antinociception with Limited Side Effects in Mice and Minimal Impact on Human Sperm Motility In Vitro” (Molecules, 2023).
Entries after “also recorded” stand apart in the source; their conditions may differ.

Experiments:
male Kunming mice [1] = assay: Carrageenan-induced inflammatory pain; type: in vivo, mouse (Kunming); details: 10 mg/kg s.c. each; AUC 0 to 90 min
Protocol: Carrageenan has been used in the inflammatory pain model. The mice were placed in a clear plastic chamber on the glass surface of radiant heat equipment (PL-200, Chengdu Technology & Market Co., Ltd., Chengdu, China). Radiant heat intensity was adapted to engender a basal latency within 10–20 s in naive mice. The cutoff time was set at 25 s to avoid tissue damage. On the first day, the paw withdrawal threshold was tested, and the right hind paw intraplantar injection with 20 μL of 2% λ-carrageenan was performed. After 24 h, thermal hyperalgesia was measured. Subsequently, the paw withdrawal threshold was measured three times at approximately 2-min intervals at every point after administration. Percent reversal of hyperalgesia for each animal after treatment was defined as: MPE (%) = 100 × [(postdose threshold − predose threshold)/(baseline threshold − predose threshold)].

male Kunming mice [2] = assay: Rotarod test; type: in vivo, mouse (Kunming); details: 10 mg/kg s.c.; compared with saline
Protocol: Motor coordination and equilibrium were determined using a rotarod apparatus (ZB-200, Chengdu Technology & Market Co., Ltd., Chengdu, China). The mice were trained on a rotating rod at 16 rpm thrice daily for 2 days. Animals that remained on the rod for at least 180 s were used. The cutoff time was 300 s. On the third day, the mice received subcutaneous administration of drugs. The latency to fall off the rod was recorded 15, 30, 45, 60, and 90 min after administration. If the motor coordination of mice is impaired after administration of analgesics, the latency is reduced.

human sperm = assay: Human sperm motility in vitro; details: for sperm progressive motility (PR) / sperm motility (in words): 3.5 h; for sperm progressive motility (PR): 37 °C, control 57.29 ± 2.22, mean ± S.E.M., n = 5, p < 0.05

CN1CC[C@]23c4c5ccc(O)c4O[C@H]2[C@@H](O)C=C[C@H]3[C@H]1C5 [morphine]
antinociception, AUC of MPE% compared between HAGD and morphine (male Kunming mice [1]): equipotent antinociception
endurance time on rotating rod (in words) (male Kunming mice [2]): no significant difference in the endurance time
sperm progressive motility (PR) (human sperm; 0.01 µM): 45.75 ± 2.89
sperm progressive motility (PR) (human sperm; 0.1 µM): 46.16 ± 1.15
sperm progressive motility (PR), morphine (in words) (human sperm; 0.0001, 0.001, 1, or 10 µM, 0.5, 1, 3.5, or 4 h): did not change the PR of sperm
sperm motility (in words) (human sperm; morphine 0.01 µM (1 × 10^−8 mol/L)): significantly reduced; also recorded: significant inhibition after 3.5 h
sperm motility (in words) (human sperm; morphine 0.1 µM (1 × 10^−7 mol/L)): significantly reduced human sperm motility after 3.5 h
